# From PubChem BioAssay AID602313 (National Center for Advancing Translational Sciences (NCATS), 2012)
# The whole screen tested about 390,000 compounds, of which about 760 (0.19%) were called active. The inconclusive results got no clear call from the source; some entries with a clear call stand among them for comparison. Calls come from the whole dose curve; as a rule, active = well fitted inhibition curve with a large enough effect; inconclusive = small, poorly fitted or top-dose-only effect; inactive = flat fitted curve, though single readings scatter. Potencies of inconclusive entries are doubtful fits and often do not repeat.
# Experiment: qHTS for Inhibitors of Vif-A3F Interactions: qHTS; note: nearly all actives have a fitted effect of over 65% in size; for activity, negative = active: % of control where 0% means no effect
# Details: HeLa A3F-eYFP + Vif (tagged APOBEC3F with the HIV-1 protein that degrades it), YFP fluorescence increase; series mostly up to 46.1 µM; activity, negative = active: at the top concentration
# How it was run: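 HeLa cells stably expressing A3F-eYFP plus Vif, plated and incubated overnight at 37 deg C, then exposed to compounds overnight at 37 deg C. Blocked degradation read as raised yellow fluorescence (Ex 488/Em 500-530).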
# Potency is the fitted concentration of half-maximal effect.
Compound,Potency,"activity, negative = active"
COC(=O)/C=c1/s/c(=C(\C#N)C(=O)NCc2ccco2)n(-c2ccc(C)cc2)c1=O,"inconclusive: 22.4 µM [inhibitor, single point]",–
COc1cccc(C(=O)N/N=C(\C)CC(=O)Nc2ccc(N(C)C)cc2)c1,–,inactive: 6.25%
CCN1CCN(CCOc2cccc(Cl)c2Cl)CC1,–,inactive: 2.53%
O=C(Cn1ccccc1=S)c1ccc(Cl)c(Cl)c1,"inconclusive: 22.4 µM [inhibitor, partial curve, poor fit]",–
CC(C)Oc1ccc(C(=O)CCN2CCOCC2)cc1,–,inactive: 4.39%
CCOC(=O)c1cc(-c2ccccc2)sc1NC(=O)C(C)OC(=O)c1cccnc1Cl (stereo not given),"inconclusive: 3.16 µM [inhibitor, single point]",–
Cc1ccc(C(=O)Sc2cccccc2=O)cc1,"inconclusive: 35.5 µM [inhibitor, single point]",–
O=C1C=CC(=O)N1c1ccc2ccccc2c1,–,inactive: -5.17%
Cc1cc(C)n2c(Nc3c(C)cccc3C)c(-c3ccsc3)nc2n1,"inconclusive: 31.6 µM [inhibitor, single point]",–
O=C(Cc1ccccc1F)Nc1ccc(SC(F)F)cc1,"inconclusive: 5.62 µM [inhibitor, single point]",–
Cc1ccc2c(c1)Sc1c(ccc3ccccc13)N2,active: 22.4 µM,–
CCN(CC)CCNC(=O)C1CCN(S(=O)(=O)c2c(C)noc2/C=C/c2ccccc2F)CC1,"inconclusive: 35.5 µM [inhibitor, single point]",–
Cn1cccc1C(=O)NCc1ccccn1,"inconclusive: 3.98 µM [inhibitor, partial curve, poor fit]",–
O=C(NNC(=O)c1ccc2ccccc2c1O)c1cccs1,"inconclusive: 35.5 µM [inhibitor, single point]",–
COc1ccc(/C=C(\C#N)C(=O)NCC2CCCO2)cc1OC (stereo not given),–,inactive: 3.9%
O=c1[nH]c(CSc2nnc(-c3ccccc3)n2-c2ccccc2)nc2ccccc12,–,inactive: -7.88%
CCOc1ccc(CCNC(=O)c2ccc(CS(=O)(=O)Cc3ccccc3Cl)o2)cc1OCC,–,inactive: -0.596%
COc1cc2cc(C)c3nnc(SCC(=O)Nc4cc(C)on4)n3c2cc1OC,"inconclusive: 35.5 µM [inhibitor, partial curve, poor fit]",–
S=C(Nc1ccc(Oc2ccc(NC(=S)NC3CCCCC3)cc2)cc1)NC1CCCCC1,"inconclusive: 3.16 µM [inhibitor, partial curve, poor fit]",–
N#CCc1ccnc2ccccc12,"inconclusive: 35.5 µM [inhibitor, single point]",–
Cn1c(-c2ccc(-c3ccccc3)cc2)c[nH]c1=S,–,inactive: -3.91%
CCCn1c(=O)c(C(=O)NCc2ccccc2Cl)c(O)c2ccccc21,–,inactive: -11.5%
Cc1ccc(CNC(=O)CCc2c(C)nn(-c3ccc(N4CCCC4)nn3)c2C)cc1,–,inactive: -1.13%

# Entries of single compounds from above.
# `Cc1ccc(CNC(=O)CCc2c(C)nn(-c3ccc(N4CCCC4)nn3)c2C)cc1` is listed as activity, negative = active: inactive: -1.13%
# `O=C(Cc1ccccc1F)Nc1ccc(SC(F)F)cc1` is listed as Potency: inconclusive: 5.62 µM [inhibitor, single point]

# Later entries

Compound,Potency,"activity, negative = active"
Cn1c2ccccc2c2cc(C(=O)OCC(=O)N3CC(=O)Nc4ccccc43)sc21,"inconclusive: 35.5 µM [inhibitor, single point]",–
C=CCn1cc(C(=O)NCc2ccc(Cl)cc2)c(=O)c2cc(S(=O)(=O)N(CC)CC)ccc21,"inconclusive: 1.78 µM [inhibitor, partial curve, poor fit]",–
Cc1ccc(C(C#N)=Cc2ccc3c(c2)OCO3)cc1,–,inactive: -17.2%
CNC(=O)CN1C(=O)NC(c2ccccc2)(c2ccccc2)C1=O,"inconclusive: 3.55 µM [inhibitor, partial curve, poor fit]",–
O=C(CNc1cccc(S(=O)(=O)N2CCCC2)c1)Nc1cccc(F)c1,"inconclusive: 4.47 µM [inhibitor, single point]",–
COc1ccc(C(C#N)=C2C=CC(=NO)C=C2)cc1,"inconclusive: 2.24 µM [inhibitor, partial curve, poor fit]",–
C[n+]1c2cc(N)ccc2cc2ccc(N)cc21,inactive,–
Cc1ccc(N=Cc2sc(O)c3ccccc23)cc1,"inconclusive: 35.5 µM [inhibitor, single point]",–
Cc1ccc(C)c(N2CCN(C(=O)c3ccc4c(c3)c(C)c(C)n4C)CC2)c1,"inconclusive: 35.5 µM [inhibitor, single point]",–
S=C(Nc1ccc(Cl)cc1)c1nc2ccccc2[nH]1,"inconclusive: 35.5 µM [inhibitor, single point]",–
Cc1ccccc1NC(=S)NCCC(c1ccccc1)c1ccccc1,"inconclusive: 17.8 µM [inhibitor, single point]",–
O=C(NC1CCCCC1)N1CCCC(c2nc(-c3ccc(S(=O)(=O)N4CCCC4)cc3)no2)C1 (stereo not given),"inconclusive: 35.5 µM [inhibitor, single point]",–
CNC(=O)COC(=O)c1cc2c(s1)CCCC2,"inconclusive: 25.1 µM [inhibitor, single point]",–
CCOC(=O)c1ccc(-n2c(CCC(=O)O)ccc2-c2cccs2)cc1,–,inactive: -18.1%
CCCOc1ccc(/C=C/C(=O)OCC(=O)N(C)c2c(N)n(Cc3ccccc3)c(=O)[nH]c2=O)cc1OCC,"inconclusive: 35.5 µM [inhibitor, single point]",–
COc1cccc(-n2c(SCC(=O)N3CCc4ccccc43)nnc2-c2c[nH]c3ccccc23)c1,"inconclusive: 5.62 µM [inhibitor, single point]",–
CCC(=O)NC(c1cccs1)c1ccc2cccnc2c1O (stereo not given),–,inactive: -16%
CCCn1c(CN2CCN(C(=O)OCC)CC2)nc2cc(NC(=O)C(C)C)ccc21,"inconclusive: 6.31 µM [inhibitor, single point]",–
CN(C)S(=O)(=O)c1ccc(N2CCCC2)c(C(=O)NCC(=O)Nc2ccc(F)c(F)c2)c1,–,inactive: -18.2%
O=C(NCC(=O)N(CCN1CCOCC1)C(C(=O)NC1CCCC1)c1ccccc1)c1cccs1 (stereo not given),"inconclusive: 6.31 µM [inhibitor, single point]",–
COc1ccccc1CNc1ccc2c(c1)CCC2,"inconclusive: 35.5 µM [inhibitor, single point]",–
CCCCCCc1cc2cc(-c3nnc(-c4cc(OC)c(OC)c(OC)c4)o3)c(=O)oc2cc1O,"inconclusive: 2.51 µM [inhibitor, full curve, poor fit]",–
